Like-named read-outs stand apart in the source and are kept apart here. Results are given in words; binding and its absence hold for the method and conditions named. Binding seen in cells or lysates may run through a third protein. A yes stands for co-enrichment or nearness to the bait. Other partners may have been found. For some assays here: No binding means not detected with the bait.

The chains behind the UniProt entries cited, without tags or fusion partners. Where a name states a change or a piece, a line headed by the entry shows the natural chain unless it says otherwise.
UniProt F7W245: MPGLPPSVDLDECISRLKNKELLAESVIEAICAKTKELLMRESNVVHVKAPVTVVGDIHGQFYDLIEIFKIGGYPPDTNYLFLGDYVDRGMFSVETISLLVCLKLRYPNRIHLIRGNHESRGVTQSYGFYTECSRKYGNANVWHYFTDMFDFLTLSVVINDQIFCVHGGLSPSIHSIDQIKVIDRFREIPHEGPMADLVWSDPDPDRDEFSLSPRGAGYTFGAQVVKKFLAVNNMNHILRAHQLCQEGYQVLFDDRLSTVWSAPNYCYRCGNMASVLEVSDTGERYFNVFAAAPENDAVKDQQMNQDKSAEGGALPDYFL
UniProt F7VP17: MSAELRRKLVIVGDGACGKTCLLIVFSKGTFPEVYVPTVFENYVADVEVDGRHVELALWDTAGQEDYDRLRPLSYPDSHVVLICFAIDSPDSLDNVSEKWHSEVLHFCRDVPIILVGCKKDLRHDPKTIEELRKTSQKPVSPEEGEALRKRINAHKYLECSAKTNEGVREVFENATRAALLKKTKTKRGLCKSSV

Test [1] deals with NTAP-PP2Ac1 (catalytic subunit 1 of protein phosphatase 2A with an N-terminal TAP tag) (Sordaria macrospora) (UniProt F7W245). Description: affinity purification with mass spectrometry; tandem affinity purification (TAP) with NTAP-PP2Ac1 as bait from protein extract of the S. macrospora Δpp2Ac1::ntap-pp2Ac1 strain; TEV cleavage with AcTEV; tryptic digestion and MudPIT MS; four replicates; unspecific background and ribosomal proteins subtracted.

For test [2] the target is unchanged. The test is described as above. This is another data set of the same source.

For the molecule “RHO1, CWI pathway component (from UniProt F7VP17)”, in test [1], the binding entry is given as “binds”.

B1: PRO11 (striatin homolog), endogenous (protein, UniProt Q70M86 1-845)
chain: MGTNGVHVSFGAGHEMGGVMGNGSGQPPATEYTLQGVMRFLQTEWHRHERDRNAWEIEKQEMRARIANLEGQARRADATQKALKRYVSILEKKVKEQSAALKSGGKEKGVEDEAEAEDNKTKLDRSALIQEKLRPNTKLSGAPNEAENVEIGPPDDESARNELKTFLDQCQAEFTYLMVTPANPQPPRESPPLPILDDFREGEALNQQLEQSYQRSQQSQIRDLLAQQAAAANATNVAAVQSQQQQPQQQQHAVGPRPQTNQPPKGYGELAQGAPMERSSRGQQLHDILKSGETPDWSASMQSQPVEEPTSALSKAPPMVRGDGREPAVPKSASTTDAWDFNESNFQDPNAMPQPTPQQSFSSRPDTDAFPSAENLTKSPNRGALSHRRKSSSGMARRRSAEHELSLGSLQQKAEGTMFKFRFGLRGHLDVVRTVIFSGGGSPGEPEICTAGDDGLVKRFHIPDRHIGQRNADGDLDVAADFTHRGHSGAVLSLASWSPSPNFSTGGRAQGDGWIFSGGQDATIRVWERGRVDPKATLDGHTDAVWALCVLPTNLGAIFGQTNSHGPPDRILLVSGAADGTVKVWAVSAPPQLTSPQPGPGRRGPGGRVRGNSMSSGSAFPSSPQPTTASNSPFHHTLVHTIKRANSEASPTCITALSPNGETFAVSYADAAIIVYDTRSGEEIGTMASLDTYDGTNNTAVNAVVATTVGLDQTQGPGGEDESGGGPTGGGRSMAGSGVEGTIISGHEDRYIRFFDANSGQCTYNMLAHPGSVSSLSLSPDGRELVSAGHDMSLRFWSLETRSCTQEMTCHRSMRGEGVCAVVWSQDGRWVVSSGGDGMVKVYAR
With B1, in test [2], the binding result is “no binding”.

B2: SMAC_00681, hypothetical protein of unknown function (protein, UniProt F7VMS7 1-695)
chain: MASQPRNTYNAPGFLPNGAAPHQGPVPGATPLLPNQGRVLQTGPIRVLCIADVRGNLRSLNDLAKSARADYIIHTGDFGFYDETSLERIAEKTLKHVAQYSPLISESTKKAIAQAAAGPVKSRFPASELPLSELPLLISGELKLDVPVYTVWGACEDVRVLEKFRSGEYKVPNLFVIDESRSKLLEIGGVKLRLLGLGGAVVMHKLFDNGEGRTTIAGGQGTMWTTLLQMGELVDTANRVYDPTETRIFITHASPAREGILNQLSVTLKADFSISAGLHFRYGSSYNEFSVNPTLDHYRGKLAASKASFNDVWETVRSEVEPAIQQNDVQQTLLKNALSVVEKMPTTAAGGNPFGGAAAGQSVAALGQVDESAFKNMWNFNLADAAFGWLVLEIHDGRIGTEMRAQGFNFSHRGAKQPVNAAQGAVPASAGGANPVPTGPAASTPIQSAAQPAPAVPAVPVVPKQAPAQTAKPVAPSPAPTQPKAATPQPAPAASPASRESEKPASAPSNGASNNPEPTPSPAPKSAVENMIGLFVMQPPSDDAIPDLFAAEDKAKIVKVDKWGQTNRVVIFKTVEDRDGALDRLPQEFKTRGSGSDDRNKPLIKVFNPPASRPFNNRGGAGTWASSRGGREGTQSGYRSAGGGTASDSEGAGRRGGRGGSRGGRGGERGGRGSRRGGLKGDGSPATTSATPADS
As for B2, in test [2], the binding result is “binds”.

B3: PP2A scaffold protein PP2AA, endogenous (protein, UniProt F7VS87 1-635)
chain: MADATNANDELFPIAVLIDELKHDEVVLRLNAIHRLSTIALALGPERTREELIPFLDESVEDEDEVLVALSEELGNFVEYVGGPAWGHVLLSPLENLAAIEEPVVRDKAVESLNKICTELSSQQVEEYFIPLTIRLSKADWFTSKVSGCGLYTTPYSKVSPPIQEQLRQQFGQLVHDETPMVRRQAATNMAKFVKEMPTAIVVEEMIPMFQHLAGDDQDSVRLLTVEILISIAEVVPKEQQSSHGVLLTSLRSLIEDKSWRVRYMIADRFEKIAKAVDEEVVSRDLVPAFVKLLKDNEAEVRTAIAGQIPGFCALVDRNVLLNDIMGSVEDLVSDSSQHVRAALGTQISGLAPILGKQETIDHLLPMFLQMLKDEFPEVRLHIISKLELVNQVIGIDLLSQSLLPAIVQLAEDKQWRVRLAIIDYIPLLASQLGVKFFDEKLSQLCMGWLGDTVFSIREAATHNLRKLTEVFGVEWASEAIIPKVMAMGGHPNYLYRMTTCFAITTLATVVSLDVIAKSILPMLEKLTADSIPNIRFNVAKTYGVIIGVLRRLPDEGTIYTLEKEGKAATPSPKGQELIQQRIMPCLEKLQKDDDVDVRYFATTAAAQATGPLMGAATEAGNPIPSGGEPMNTSP
For the molecule B3, the binding result in test [2] is given as “binds”.

B4: CDC55, B-type regulatory subunit of PP2A (protein, UniProt F7W199 1-481)
chain: MVETDTNSPTWKFTQCFGDKGDVEDITEADIISTVEFDHTGNYLATGDKGGRVVLFERNETKKTCEYKFHTEFQSHEPEFDYLKSLEIEEKINKIKWCRRQNASHYLLSTNDKTIKLWKVFEKSLKVVAENNLSHDLTPANAAGGGGAPRALPHTHFRSPADLKLPRLTHHDTVVAAVPRRTYANAHAYHINSISVNSDGETFISSDDLRINLWNLNIQDQSFNIVDIKPANMEELTEVITAAEFHPLSCNWFMYASSKGTIKLADMRERALCDQHAKMFEQEEDPSSRSFFSEIISSISDVRFSHDGRYILSRDYLTVKIWDVNMERQPVKTIPIHEHLRPRLCDTYENDSIFDKFEVVFSGDAKNVMTGSYNNNFMIYPSDPDKEVEVVLQADKSAFKAKKVGVPTPINSSTSPTANGGKKGNSRAGSPAAAGQGQRMRKETDADQIDFNKKILHMSWHPFEDSIAIAATNNLFVFSAL
In the case of B4, in test [2], the binding entry is “binds”.

For the origin of these results see PMC4916389.
